These are yes or no findings as the source states them, for the method shown. Binding seen in cells or lysates may run through a third protein. Some entries that bind do so weakly or less than the wild type.
Target: Poly [ADP-ribose] polymerase 1 (human (endogenous in HeLa)) (UniProt P09874)
Assay: co-IP; endogenous PARP-1 immunoprecipitated from HeLa cell lysate with mouse monoclonal F1-23 antibody (control: normal mouse IgG); western blot with rabbit polyclonal RFC1 antibody and C2-10 antibody to PARP-1

The chains behind the UniProt entries cited, without tags or fusion partners.
UniProt P09874: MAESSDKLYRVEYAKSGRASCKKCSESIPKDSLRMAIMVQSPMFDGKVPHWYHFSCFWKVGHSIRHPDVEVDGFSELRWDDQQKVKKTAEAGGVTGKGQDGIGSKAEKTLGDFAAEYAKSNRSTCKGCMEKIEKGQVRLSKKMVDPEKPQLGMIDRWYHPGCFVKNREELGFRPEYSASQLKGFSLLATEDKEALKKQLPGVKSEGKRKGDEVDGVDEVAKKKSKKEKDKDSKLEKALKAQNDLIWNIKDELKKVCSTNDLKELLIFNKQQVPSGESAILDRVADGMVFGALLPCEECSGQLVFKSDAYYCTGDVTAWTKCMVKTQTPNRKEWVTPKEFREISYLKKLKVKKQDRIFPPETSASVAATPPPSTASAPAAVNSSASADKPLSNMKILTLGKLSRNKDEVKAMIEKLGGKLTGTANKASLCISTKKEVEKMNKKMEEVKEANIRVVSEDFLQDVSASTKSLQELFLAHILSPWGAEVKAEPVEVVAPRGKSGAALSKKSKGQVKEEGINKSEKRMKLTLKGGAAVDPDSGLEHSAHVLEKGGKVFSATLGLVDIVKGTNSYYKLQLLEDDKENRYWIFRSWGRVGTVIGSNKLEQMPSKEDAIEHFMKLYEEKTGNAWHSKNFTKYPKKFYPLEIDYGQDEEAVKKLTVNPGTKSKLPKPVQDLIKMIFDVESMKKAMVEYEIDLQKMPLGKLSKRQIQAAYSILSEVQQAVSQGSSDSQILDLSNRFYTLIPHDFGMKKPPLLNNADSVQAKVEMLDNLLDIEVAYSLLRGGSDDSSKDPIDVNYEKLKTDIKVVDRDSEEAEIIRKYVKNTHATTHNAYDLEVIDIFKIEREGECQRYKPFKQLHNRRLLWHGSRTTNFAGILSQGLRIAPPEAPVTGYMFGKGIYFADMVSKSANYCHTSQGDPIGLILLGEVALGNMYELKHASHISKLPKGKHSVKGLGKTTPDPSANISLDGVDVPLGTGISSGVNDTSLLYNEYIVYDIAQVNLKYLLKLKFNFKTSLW

- binding: binds
B1: Splice Isoform 1 of Activator 1 140 kDa subunit (protein, UniProt P35251 1-1148)
chain: MDIRKFFGVIPSGKKLVSETVKKNEKTKSDEETLKAKKGIKEIKVNSSRKEDDFKQKQPSKKKRIIYDSDSESEETLQVKNAKKPPEKLPVSSKPGKISRQDPVTYISETDEEDDFMCKKAASKSKENGRSTNSHLGTSNMKKNEENTKTKNKPLSPIKLTPTSVLDYFGTGSVQRSNKKMVASKRKELSQNTDESGLNDEAIAKQLQLDEDAELERQLHEDEEFARTLAMLDEEPKTKKARKDTEAGETFSSVQANLSKAEKHKYPHKVKTAQVSDERKSYSPRKQSKYESSKESQQHSKSSADKIGEVSSPKASSKLAIMKRKEESSYKEIEPVASKRKENAIKLKGETKTPKKTKSSPAKKESVSPEDSEKKRTNYQAYRSYLNREGPKALGSKEIPKGAENCLEGLIFVITGVLESIERDEAKSLIERYGGKVTGNVSKKTNYLVMGRDSGQSKSDKAAALGTKIIDEDGLLNLIRTMPGKKSKYEIAVETEMKKESKLERTPQKNVQGKRKISPSKKESESKKSRPTSKRDSLAKTIKKETDVFWKSLDFKEQVAEETSGDSKARNLADDSSENKVENLLWVDKYKPTSLKTIIGQQGDQSCANKLLRWLRNWQKSSSEDKKHAAKFGKFSGKDDGSSFKAALLSGPPGVGKTTTASLVCQELGYSYVELNASDTRSKSSLKAIVAESLNNTSIKGFYSNGAASSVSTKHALIMDEVDGMAGNEDRGGIQELIGLIKHTKIPIICMCNDRNHPKIRSLVHYCFDLRFQRPRVEQIKGAMMSIAFKEGLKIPPPAMNEIILGANQDIRQVLHNLSMWCARSKALTYDQAKADSHRAKKDIKMGPFDVARKVFAAGEETAHMSLVDKSDLFFHDYSIAPLFVQENYIHVKPVAAGGDMKKHLMLLSRAADSICDGDLVDSQIRSKQNWSLLPAQAIYASVLPGELMRGYMTQFPTFPSWLGKHSSTGKHDRIVQDLALHMSLRTYSSKRTVNMDYLSLLRDALVQPLTSQGVDGVQDVVALMDTYYLMKEDFENIMEISSWGGKPSPFSKLDPKVKAAFTRAYNKEAHLTPYSLQAIKASRHSTSPSLDSEYNEELNEDDSQSDEKDQDAIETDAMIKKKTKSSKPSKPEKDKEPRKGKGKSSKK

From article PMC2266781
